In US20130096104A1, “IMIDAZOPYRIDINE COMPOUNDS, COMPOSITIONS AND METHODS OF USE” (GENENTECH, INC., priority 2010, published 2013):
Some results were stated once for a whole list of compounds, not compound by compound.

Biological target: T1, TYK2 kinase domain (Homo sapiens, UniProt P29597)
T1 construct: The activity of the isolated JAK1, JAK2 or TYK2 kinase domain was measured
T1 sequence (P29597 897-1176 limits assumed): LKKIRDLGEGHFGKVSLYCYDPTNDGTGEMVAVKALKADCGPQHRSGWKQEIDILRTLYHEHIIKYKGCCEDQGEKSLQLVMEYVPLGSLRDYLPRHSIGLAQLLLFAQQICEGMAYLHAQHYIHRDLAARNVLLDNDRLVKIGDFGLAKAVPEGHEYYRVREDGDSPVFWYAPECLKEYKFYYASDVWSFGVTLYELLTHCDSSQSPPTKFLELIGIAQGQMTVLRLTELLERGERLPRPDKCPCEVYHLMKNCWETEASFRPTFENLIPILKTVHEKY
Assay: TYK2 inhibition assay (Example A, Caliper LabChip peptide phosphorylation)
Format: biochemical
Settings: tested in the above assays; less than about

`Fc1ccc(Nc2ncnc3[nH]c(-c4c(Cl)cccc4Cl)nc23)nc1` [Example 413, 8-(2,6-dichlorophenyl)-N-(5-fluoropyridin-2-yl)-9H-purin-6-amine] showed an IC50 of under 5 µM.

Work on `Cc1nc(N)cc(Nc2ncnc3[nH]c(-c4c(Cl)cccc4Cl)nc23)n1` [Example 414, N4-(8-(2,6-dichlorophenyl)-9H-purin-6-yl)-2-methylpyrimidine-4,6-diamine] yielded an IC50 of under 5 µM.

Molecule `O=C(O)C1(c2ccc(Nc3ncnc4[nH]c(-c5c(Cl)cccc5Cl)nc34)nc2)CC1` [Example 415, 1-(6-(8-(2,6-dichlorophenyl)-9H-purin-6-ylamino)pyridin-3-yl)cyclopropane-carboxylic acid] has an IC50 of under 5 µM.

For `Nc1cc(Nc2ncnc3[nH]c(-c4c(Cl)cccc4Cl)nc23)nc(N)n1` [Example 416, N4-(8-(2,6-dichlorophenyl)-9H-purin-6-yl)pyrimidine-2,4,6-triamine], the IC50 was under 5 µM.

`Clc1cccc(Cl)c1-c1nc2c(Nc3ncnc4[nH]ncc34)ncnc2[nH]1` [Example 417, N-(8-(2,6-dichlorophenyl)-9H-purin-6-yl)-1H-pyrazolo[3,4-d]pyrimidin-4-amine] was tested, and the IC50 was under 5 µM.

With `NC(=O)c1ccnc(Nc2nccc3nc(-c4c(F)cccc4Cl)[nH]c23)c1` [Example 418, 2-(2-(2-chloro-6-fluorophenyl)-3H-imidazo[…][4,5-c]pyridin-4-ylamino)-isonicotinamide] the IC50 was under 5 µM.

`O=C(c1ccnc(Nc2nccc3nc(-c4c(F)cccc4Cl)[nH]c23)c1)N1CCCC1` [Example 419, (2-(2-(2-chloro-6-fluorophenyl)-3H-imidazo[4,5-c]pyridin-4-ylamino)pyridin-4-yl)(pyrrolidin-1-yl)methanone] gave an IC50 of under 5 µM.

Work on `O=C(c1ccnc(Nc2nccc3nc(-c4c(Cl)cccc4Cl)[nH]c23)c1)N1CCCC1` [Example 420, (2-(2-(2,6-dichlorophenyl)-3H-imidazo[4,5-c]pyridin-4-ylamino)pyridin-4-yl)(pyrrolidin-1-yl)methanone] yielded an IC50 of under 5 µM.

For `Nc1ncnc2nc(-c3c(Cl)cccc3Cl)[nH]c12` [Example 421, 8-(2,6-dichlorophenyl)-7H-purin-6-amine], the IC50 was under 5 µM.

`CNc1ncnc2nc(-c3c(Cl)cccc3Cl)[nH]c12` [Example 422, 8-(2,6-dichlorophen-yl)-N-methyl-[…]7H-purin-6-amine] showed an IC50 of under 5 µM.

`O=C(c1ccnc(Nc2ncnc3nc(-c4c(Cl)cccc4Cl)[nH]c23)c1)N1CCCC1` [Example 424, (2-(8-(2,6-dichlorophenyl)-7H-purin-6-ylamino)[…]pyridin-4-yl)(pyrrolidin-1-yl)methanone] showed an IC50 of under 5 µM.

Molecule `CC(=O)Nc1ncnc2nc(-c3c(Cl)cccc3Cl)[nH]c12` [Example 425, N-(8-(2,6-dichlorophenyl)-7H-purin-6-yl)acetamide] has an IC50 of under 5 µM.

With `NC(=O)c1ccnc(Nc2ncnc3nc(-c4c(Cl)cccc4Cl)[nH]c23)c1` [Example 426, 2-(8-(2,6-dichlorophenyl)-7H-purin-6[…]-ylamino)-isonicotinamide] the IC50 was under 5 µM.

Work on `OCc1cc(Nc2ncnc3nc(-c4c(Cl)cccc4Cl)[nH]c23)ncn1` [Example 429, (6-(8-(2,6-dichlorophenyl)-7H-purin-6-ylamino)pyrimidin-4-yl)methanol] yielded an IC50 of under 5 µM.

In the case of `Cn1c(-c2c(Cl)cccc2Cl)nc2c(N)ncnc21` [Example 430, 8-(2,6-dichlorophenyl)-9-methyl-9H-purin-6-amine], the IC50 is reported as under 5 µM.

`CCC(=O)Nc1ncnc2nc(-c3c(Cl)cccc3Cl)[nH]c12` [Example 431, N-(8-(2,6-dichlorophenyl)-7H-purin-6-yl)propionamide] was tested, and the IC50 was under 5 µM.

`CNC(=O)c1ccnc(Nc2ncnc3nc(-c4c(Cl)cccc4Cl)[nH]c23)c1` [Example 432, 2-(8-(2,6-dichlorophenyl)-7H-purin-6-ylamino)-N-methyl-isonicotinamide] showed an IC50 of under 5 µM.

With `O=C(c1ccnc(Nc2ncnc3nc(-c4c(Cl)cccc4Cl)[nH]c23)c1)N1CCC1` [Example 433, azetidin-1-yl(2-(8-(2,6-dichlorophenyl)-7H-purin-6-ylamino)pyridin-4-yl)methanone] the IC50 was under 5 µM.

`O=C(c1ccnc(Nc2ncnc3nc(-c4c(Cl)cccc4Cl)[nH]c23)c1)N1CC(O)C1` [Example 434, (2-(8-(2,6-dichlorophenyl)-7H-purin-6-ylamino)pyridin-4-yl)(3-hydroxyazetidin-1-yl)methanone] was tested, and the IC50 was under 5 µM.

Work on `CC(C)(CO)NC(=O)c1ccnc(Nc2ncnc3nc(-c4c(Cl)cccc4Cl)[nH]c23)c1` [Example 435, 2-(8-(2,6-dichlorophenyl)-7H-purin-6-ylamino)-N-(1-hydroxy-2-methylpropan-2-yl)isonicotinamide] yielded an IC50 of under 5 µM.

`Cn1c(-c2c(Cl)cccc2Cl)nc2ccnc(Nc3ccncn3)c21` [Example 436, [2-(2,6-Dichloro-phenyl)-3-methyl-3H-imidazo[4,5-c]pyridin-4-yl]-pyrimidin-4-yl-amine] gave an IC50 of under 5 µM.

`Cn1c(-c2c(Cl)cccc2Cl)nc2c(Nc3ccncn3)nccc21` [Example 437, [2-(2,6-Dichloro-phenyl)-1-methyl-1H-imidazo-[4,5-c]pyridin-4-yl]-pyrimidin-4-yl-amine] gave an IC50 of under 5 µM.

With `Cc1cc(Nc2ncnc3c2nc(-c2c(Cl)cccc2Cl)n3CCO)nc(C)n1` [Example 438, 2-[8-(2,6-Dichloro-phenyl)-6-(2,6-dimethyl-pyrimidin-4-ylamino)-purin-9-yl]-ethanol] the IC50 was under 5 µM.

With `O=C(Nc1ncnc2c1nc(-c1c(Cl)cccc1Cl)n2CCO)C1CC1` [Example 439, Cyclopropanecarboxylic acid [8-(2,6-dichloro-phenyl)-9-(2-hydroxy-ethyl)-9H-purin-6-yl]-amide] the IC50 was under 5 µM.

Work on `CN1CCN(c2cc(Nc3ncnc4c3nc(-c3c(Cl)cccc3Cl)n4CCO)ncn2)CC1` [Example 442, 2-{8-(2,6-Dichloro-phenyl)-6-[6-(4-methyl-piperazin-1-yl)-pyrimidin-4-ylamino]-purin-9-yl}-ethanol] yielded an IC50 of under 5 µM.

With `Fc1cnc(Nc2cc(N3CCOCC3)ccn2)c2nc(-c3c(Cl)cccc3Cl)[nH]c12` [Example 444, [2-(2,6-Dichloro-phenyl)-7-fluoro-1H-imidazo[4,5-c]pyridin-4-yl]-(4-morpholin-4-yl-pyridin-2-yl)-amine] the IC50 was under 5 µM.

Work on `Fc1cnc(Nc2cc(N3CCOCC3)ncn2)c2nc(-c3c(Cl)cccc3Cl)[nH]c12` [Example 445, [2-(2,6-Dichloro-phenyl)-7-fluoro-1H-imidazo[4,5-c]pyridin-4-yl]-(6-morpholin-4-yl-pyrimidin-4-yl)-amine] yielded an IC50 of under 5 µM.

In the case of `Cc1cc(Nc2ncc(Cl)c3[nH]c(-c4c(Cl)cccc4Cl)nc23)nc(C)n1` [Example 446, [7-Chloro-2-(2,6-dichloro-phenyl)-1H-imidazo[4,5-c]pyridin-4-yl]-(2,6-dimethyl-pyrimidin-4-yl)-amine], the IC50 is reported as under 5 µM.

`O=C(Nc1ncc(Cl)c2[nH]c(-c3c(Cl)cccc3Cl)nc12)C1CC1` [Example 447, Cyclopropanecarboxylic acid [7-chloro-2-(2,6-dichloro-phenyl)-1H-imidazo[4,5-c]pyridin-4-yl]-amide] was tested, and the IC50 was under 5 µM.

`Cc1cnc(NC(=O)C2CC2)c2nc(-c3c(Cl)cccc3Cl)[nH]c12` [Example 448, Cyclopropanecarboxylic acid [2-(2,6-dichloro-phenyl)-7-methyl-1H-imidazo[4,5-c]pyridin-4-yl]-amide] gave an IC50 of under 5 µM.

`Cc1cc(Nc2ncc(C)c3[nH]c(-c4c(Cl)cccc4Cl)nc23)nc(C)n1` [Example 449, [2-(2,6-Dichloro-phenyl)-7-methyl-1H-imidazo[4,5-c]pyridin-4-yl]-(2,6-dimethyl-pyrimidin-4-yl)-amine] gave an IC50 of under 5 µM.

Molecule `Cc1cc(Nc2ncc(F)c3[nH]c(-c4c(Cl)cccc4Cl)nc23)ncn1` [Example 450, [2-(2,6-Dichloro-phenyl)-7-fluoro-1H-imidazo[4,5-c]pyridin-4-yl]-(6-methyl-pyrimidin-4-yl)-amine] has an IC50 of under 5 µM.

`Fc1cnc(Nc2cc(C3CC3)ncn2)c2nc(-c3c(Cl)cccc3Cl)[nH]c12` [Example 451, (6-Cyclopropyl-pyrimidin-4-yl)-[2-(2,6-dichloro-phenyl)-7-fluoro-1H-imidazo[4,5-c]pyridin-4-yl]-amine] gave an IC50 of under 5 µM.

`CC(C)c1cc(Nc2ncc(F)c3[nH]c(-c4c(Cl)cccc4Cl)nc23)ncn1` [Example 452, [2-(2,6-Dichloro-phenyl)-7-fluoro-1H-imidazo[4,5-c]pyridin-4-yl]-(6-isopropyl-pyrimidin-4-yl)-amine] was tested, and the IC50 was under 5 µM.

`Cc1cc(Nc2ncc(Br)c3[nH]c(-c4c(Cl)cccc4Cl)nc23)nc(C)n1` [Example 453, [7-Bromo-2-(2,6-dichloro-phenyl)-1H-imidazo[4,5-c]pyridin-4-yl]-(2,6-dimethyl-pyrimidin-4-yl)-amine] was tested, and the IC50 was under 5 µM.

In the case of `O=C(Nc1ncc(Br)c2[nH]c(-c3c(Cl)cccc3Cl)nc12)C1CC1` [Example 454, Cyclopropanecarboxylic acid[7-bromo-2-(2,6-dichloro-phenyl)-1H-imidazo[4,5-c]pyridin-4-yl]-amide], the IC50 is reported as under 5 µM.

For `Fc1cnc(Nc2ccc(N3CCOCC3)cn2)c2nc(-c3c(Cl)cccc3Cl)[nH]c12` [Example 455, [2-(2,6-Dichloro-phenyl)-7-fluoro-1H-imidazo[4,5-c]pyridin-4-yl]-(5-morpholin-4-yl-pyridin-2-yl)-amine], the IC50 was under 5 µM.

In the case of `Cc1cc(Nc2ncc(F)c3[nH]c(-c4c(F)cccc4Cl)nc23)ncn1` [Example 456, [2-(2-Chloro-6-fluoro-phenyl)-7-fluoro-1H-imidazo[4,5-c]pyridin-4-yl]-(6-methyl-pyrimidin-4-yl)-amine], the IC50 is reported as under 5 µM.

With `O=C(Nc1ncc(F)c2[nH]c(-c3c(F)cccc3Cl)nc12)C1CC1` [Example 457, Cyclopropanecarboxylic acid[2-(2-chloro-6-fluoro-phenyl)-7-fluoro-1H-imidazo[4,5-c]pyridin-4-yl]-amide] the IC50 was under 5 µM.
